The list does not hold the whole screen: it is rich in T/C values a quarter to a half above the control, in often repeated tests (any T/C) and in doses without a T/C. Further doses and runs are listed elsewhere. T/C: endpoint of the treated group in % of that of the vehicle group. Some doses have a count of surviving animals in place of a T/C: the source files T/C as zero there, which appears to mark a toxic dose or a test without result, not a measured value. Some doses without a T/C left all or most animals alive at the check, yet need not have been tolerated: the source hardly ever lists a survival T/C far under the control, and the zero likely stands for such cases as well. Counts of survivors are from the toxicity check (mostly the fifth day) where no day follows; animals may have died later. Schedule codes are those of the source, read here as Q, the interval in days (D) or hours (H), X, the number of doses. Some doses were run more than once; the results are listed from low to high. Some schedules carry Z or #; the key to these is not given. Where survival is the endpoint, the PubChem record calls one and a half times the control and up active, and a quarter to a half above the control has no call in these data; cut-offs in other NCI protocols can differ. Some T/C values are followed by the survivors on the day toxicity was checked, most often the fifth; where none is given, no animal had died by that day.
Tested on: L1210 leukemia ip in BDF1 mice, survival T/C
Experiment: NCI In Vivo Anticancer Drug Screen. Data for tumor model L1210 Leukemia (intraperitoneal) in B6D2F1 (BDF1) mice
Settings: T/C endpoint: mean survival time, higher T/C = longer survival
[1] = dose: 100.0 mg/kg/injection, schedule: Q04DX002 (ip), vehicle: Klucel (hydroxypropylcellulose) (HPC)
[2] = dose: 200.0 mg/kg/injection, schedule: Q04DX002 (ip), vehicle: Klucel (hydroxypropylcellulose) (HPC)
[3] = dose: 400.0 mg/kg/injection, schedule: Q04DX002 (ip), vehicle: Klucel (hydroxypropylcellulose) (HPC)
[4] = dose: 300.0 mg/kg/injection, schedule: Q01DX009 (ip), vehicle: Klucel (hydroxypropylcellulose) (HPC)
[5] = dose: 400.0 mg/kg/injection, schedule: Q01DX009 (ip), vehicle: Klucel (hydroxypropylcellulose) (HPC)
[6] = dose: 200.0 mg/kg/injection, schedule: Q01DX001 (ip), vehicle: carboxymethylcellulose (CMC)
[7] = dose: 400.0 mg/kg/injection, schedule: Q01DX001 (ip), vehicle: carboxymethylcellulose (CMC)
[8] = dose: 200.0 mg/kg/injection, schedule: Q01DX009 (ip), vehicle: Klucel (hydroxypropylcellulose) (HPC)
[9] = dose: 400.0 mg/kg/injection, schedule: Q01DX001 (ip), vehicle: saline

## CC(C)C(=O)[O][Sn]([CH3])([CH3])[CH3]
dose: 1.56 mg/kg/injection, schedule: Q01DX009 (ip), vehicle: Klucel (hydroxypropylcellulose) (HPC)
  survivor count: 5 of 6
dose: 3.12 mg/kg/injection, schedule: Q01DX009 (ip), vehicle: Klucel (hydroxypropylcellulose) (HPC)
  survivor count: 0 of 6
dose: 3.12 mg/kg/injection, schedule: Q04DX002 (ip), vehicle: Klucel (hydroxypropylcellulose) (HPC)
  survivor count: 1 of 3
dose: 6.25 mg/kg/injection, schedule: Q04DX002 (ip), vehicle: Klucel (hydroxypropylcellulose) (HPC)
  survivor count: 0 of 3
dose: 12.5 mg/kg/injection, schedule: Q04DX002 (ip), vehicle: Klucel (hydroxypropylcellulose) (HPC)
  survivor count: 0 of 3
[1]
  survivor count: 0 of 3
[2]
  survivor count: 0 of 3
[3]
  survivor count: 0 of 3

## O=C(Nc1cccc(C2=NCCCN2)c1)c1ccc(C(=O)Nc2cccc(C3=NCCCN3)c2)c([N+](=O)[O-])c1
dose: 1.0 mg/kg/injection, schedule: Q01DX015 (ip), vehicle: water
  survivor count: 0 of 6
dose: 2.0 mg/kg/injection, schedule: Q01DX015 (ip), vehicle: water
  survivor count: 0 of 6
dose: 4.0 mg/kg/injection, schedule: Q01DX015 (ip), vehicle: water
  survivor count: 0 of 6

## Nc1nc(NCCCc2ccccc2)c([N+](=O)[O-])c(=O)[nH]1
dose: 400.0 mg/kg/injection, schedule: Q01DX009 (ip), vehicle: saline with Tween-80
  survivor count: 6 of 6

## CC(O)CNC1CCC(C)CC1 (stereo not drawn)
dose: 300.0 mg/kg/injection, schedule: Q01DX001 (ip), vehicle: acid diluted with saline
  survivor count: 1 of 6

## COC(=O)NS(=O)(=O)/C=C\n1c2ccccc2c2ccccc21
[4]
  survivor count: 1 of 6

## [Br][Pb]([Br])([c]1ccccc1)[c]1ccccc1
[5]
  survivor count: 2 of 6

## Cc1cccc(/C=N\NC(=O)CCCC(=O)N/N=C/c2cccc(C)n2)n1
[6]
  survivor count: 4 of 4
[7]
  survivor count: 4 of 4

## O=S(N=C(C(F)(F)F)C(F)(F)F)C(F)(F)F (stereo not drawn)
dose: 200.0 mg/kg/injection, schedule: Q01DX001 (ip), vehicle: Klucel (hydroxypropylcellulose) (HPC)
  survivor count: 3 of 6

## Cc1cc2ccccc2c(N=Cc2cc(Br)cc(Br)c2O)c1C#N
dose: 100.0 mg/kg/injection, schedule: Q01DX003 (ip), vehicle: saline with Tween-80
  survivor count: 3 of 3
dose: 400.0 mg/kg/injection, schedule: Q01DX003 (ip), vehicle: saline with Tween-80
  survivor count: 3 of 3

## CCCC(=O)NC1=C(N2CC2)C(=O)C(NC(=O)CCC)=C(N2CC2)C1=O
dose: 1.0 mg/kg/injection, schedule: Q01DX Z (ip), vehicle: saline
  T/C: 127 % of control [5 of 6 alive]
dose: 2.0 mg/kg/injection, schedule: Q01DX010 (oral), vehicle: saline
  T/C: 136 % of control
dose: 8.0 mg/kg/injection, schedule: Q01DX010 (oral), vehicle: saline
  T/C: 133 % of control
dose: 8.0 mg/kg/injection, schedule: Q01DX Z (ip), vehicle: saline
  survivor count: 6 of 6
dose: 16.0 mg/kg/injection, schedule: Q01DX010 (oral), vehicle: saline
  survivor count: 6 of 6

## O=S(=O)(O)c1ccc(-c2ccccc2)cc1
[8]
  survivor count: 2 of 6
dose: 400.0 mg/kg/injection, schedule: Q04DX003 (ip), vehicle: Klucel (hydroxypropylcellulose) (HPC)
  survivor count: 3 of 6

## C1CCC2[N-]CC3CCCCC3[N-]CC3CCCCC3[N-]CC3CCCCC3[N-]CC2C1.[Cu+2].[O-][Cl+3]([O-])([O-])O (stereo not drawn)
[1]
  survivor count: 0 of 3
[2]
  survivor count: 0 of 3
[3]
  survivor count: 0 of 3

## O=C(Nc1cc(F)ccc1F)Oc1cccnc1
dose: 150.0 mg/kg/injection, schedule: Q01DX009 (ip), vehicle: Klucel (hydroxypropylcellulose) (HPC)
  survivor count: 6 of 6
[8]
  survivor count: 1 of 3
[4]
  survivor count: 0 of 3 and 0 of 6
[5]
  survivor count: 1 of 3 and 6 of 6

## O=C(O)CCBr
[9]
  survivor count: 2 of 3

## C[N+](C)(C)CCOC(=O)c1ccccc1CCl
dose: 400.0 mg/kg/injection, schedule: Q04DX002 (ip), vehicle: saline with Tween-80
  survivor count: 2 of 3

## CC(O)(Cc1ccccn1)Cc1ccccn1
dose: 500.0 mg/kg/injection, schedule: Q01DX Z (ip), vehicle: saline
  survivor count: 0 of 6

## O=CO.[Mn]
dose: 100.0 mg/kg/injection, schedule: Q01DX001 (ip), vehicle: saline
  survivor count: 0 of 6
dose: 200.0 mg/kg/injection, schedule: Q01DX001 (ip), vehicle: saline
  survivor count: 0 of 6
[9]
  survivor count: 0 of 6

## O=C(CCN1CCC(c2ccccc2)CC1)c1ccc(F)cc1
[7]
  survivor count: 0 of 4

## Nc1nc2ccccc2nc1N
dose: 200.0 mg/kg/injection, schedule: Q01DX009 (ip), vehicle: saline
  survivor count: 2 of 6

## CC(=O)N1CCC(CC[P+](c2ccccc2)(c2ccccc2)c2ccccc2)CC1
dose: 25.0 mg/kg/injection, schedule: Q04DX003 (ip), vehicle: saline
  survivor count: 6 of 6
dose: 50.0 mg/kg/injection, schedule: Q04DX003 (ip), vehicle: saline
  survivor count: 6 of 6
dose: 100.0 mg/kg/injection, schedule: Q04DX003 (ip), vehicle: saline
  survivor count: 4 of 6
dose: 200.0 mg/kg/injection, schedule: Q04DX003 (ip), vehicle: saline
  survivor count: 0 of 6
dose: 400.0 mg/kg/injection, schedule: Q04DX003 (ip), vehicle: saline
  survivor count: 4 of 6

## COC(=O)C1(C)CCCC2(C)C3CCC4(C)CC3(CCO4)CCC12 (stereo not drawn)
[1]
  survivor count: 3 of 3

## CO/N=C(/c1ccccc1)c1cccc[n+]1C
dose: 75.0 mg/kg/injection, schedule: Q04DX003 (ip), vehicle: saline
  survivor count: 2 of 6

## CC1(C)NC(=O)C(/C=C/c2ccccc2)O1 (stereo not drawn)
[8]
  survivor count: 6 of 6
[5]
  survivor count: 4 of 6

## CCNC(=O)c1cc(NC(=O)c2ccc(C(=O)Nc3cc(C(=O)NCC)cc(C4=NCCN4)c3)cc2)cc(C2=NCCN2)c1
dose: 114.0 mg/kg/injection, schedule: Q01DX015 (ip), vehicle: water
  survivor count: 0 of 6

## O=NN(CCCl)C(=O)NC1CCC(Br)CC1 (stereo not drawn)
dose: 15.0 mg/kg/injection, schedule: Q01DX001 (ip), vehicle: saline with Tween-80
  T/C: 133 % of control
dose: 168.0 mg/kg/injection, schedule: Q01DX001 (ip), vehicle: saline with Tween-80
  T/C: 128 % of control

## CN1C2CC(OC3CCCCO3)C(C2)N1C (stereo not drawn)
dose: 200.0 mg/kg/injection, schedule: Q04DX003 (ip), vehicle: saline with Tween-80
  T/C: 131 % of control

## Cc1ccc(NC(=O)N(CCCl)N=O)cc1
dose: 2.0 mg/kg/injection, schedule: Q01DX015 (ip), vehicle: carboxymethylcellulose (CMC)
  T/C: 129 % of control
dose: 4.0 mg/kg/injection, schedule: Q01DX015 (ip), vehicle: carboxymethylcellulose (CMC)
  survivor count: 5 of 6
[6]
  survivor count: 4 of 4
[7]
  survivor count: 4 of 4

## CC(C)Cc1nc(/N=N/N(C)C)c(C(N)=O)[nH]1
dose: 33.0 mg/kg/injection, schedule: Q01DX009 (ip), vehicle: other
  T/C: 129 % of control
dose: 50.0 mg/kg/injection, schedule: Q01DX009 (ip), vehicle: other
  T/C: 132 % of control
dose: 75.0 mg/kg/injection, schedule: Q01DX007 (ip), vehicle: other
  T/C: 138 % of control
dose: 112.0 mg/kg/injection, schedule: Q01DX007 (ip), vehicle: other
  T/C: 137 % of control [5 of 6 alive]
